US12433950 (dated 2025)

Assay: general procedure: solution-phase peptide synthesis; BroP; diethyl cyanophosphonate; PyBrop
Details: for conjugation yield: conjugation step

Substance “(2S)-2-((2R,3R)-3-((2S)-1-((11S,14S,17S)-1-azido-17-((R)-sec-butyl)-11,14-diisopropyl-18-methoxy-10,16-dimethyl-9,12,15-trioxo-3,6-dioxa-10,13,16-triazaicosan-20-oyl)pyrrolidin-2-yl)-3-methoxy-2-methylpropanamido)-3-phenylpropanoic acid” has a conjugation yield of 82% yield.

With “(4R)-4-(2-((1R,3R)-1-acetoxy-3-((2S,3S)—N,3-dimethyl-2-((R)-1-methylpiperidine-2-carboxamido)pentanamido)-4-methylpentyl)thiazole-4-carboxamido)-5-(3-(3-(2-(2-azidoethoxy)ethoxy)propanamido)-4-hydroxyphenyl)-2-methylpentanoic acid” the conjugation yield was 82% yield.

Substance “(4R)-4-(2-((3S,6S,9R,11R)-6-((S)-sec-butyl)-3,9-diisopropyl-8-methyl-4,7,13-trioxo-12-oxa-2,5,8-triazatetradecan-11-yl)thiazole-4-carboxamido)-2-methyl-5-phenylpentanoic acid hydrochloride salt” has a step yield (late stage modification step, hydrochloride salt) of 103% yield.

In the case of “(4R)-4-(2-((4R,6R,9S,12S,15S,18S)-9-((S)-sec-butyl)-6,12-diisopropyl-7,13,15,18-tetramethyl-2,8,11,14,17,20,23-heptaoxo-21-propiolamido-3-oxa-7,10,13,16,19,22-hexaazapentacos-24-yn-4-yl)thiazole-4-carboxamido)-2-methyl-5-phenylpentanoic acid”, the conjugation yield is reported as 85% yield.

For “(4R)-4-(2-((6S,9R,11R)-6-((S)-sec-butyl)-9-isopropyl-2,3,3,8-tetramethyl-4,7,13-trioxo-12-oxa-2,5,8-triazatetradecan-11-yl)thiazole-4-carboxamido)-5-(4-hydroxy-3-(3-(2-(2-propiolamidoethoxy)ethoxy)propanamido)phenyl)-2-methylpentanoic acid”, the step yield (coupling step) was 24%.

With “(S)-2-((2R,3R)-3-((S)-1-((3R,4S,5S)-4-((S)—N,3-dimethyl-2-((S)-3-methyl-2-(methylamino)butanamido)butanamido)-3-methoxy-5-methylheptanoyl)-pyrrolidin-2-yl)-3-methoxy-2-methylpropanamido)-3-phenylpropanoic acid” the step yield (late stage modification step, run 1) was “˜100% yield” and the step yield (late stage modification step, run 2) was 90% yield.

Work on “(S)-2-((2R,3R)-3-((S)-1-((8S,11S,14S,17S,20S,21R)-20-((S)-sec-butyl)-14,17-diisopropyl-21-methoxy-8,11,13,19-tetramethyl-3,6,9,12,15,18-hexaoxo-5-propiolamido-4,7,10,13,16,19-hexaazatricos-1-yn-23-oyl)pyrrolidin-2-yl)-3-methoxy-2-methylpropanamido)-3-phenylpropanoic acid” yielded a conjugation yield of 78% yield.

Substance “(S)-methyl 2-((2R,3R)-3-((S)-1-((3R,4S,5S)-4-((S)-2-((S)-2-((S)-2-amino-N-methylpropanamido)-3-methylbutanamido)-N,3-dimethylbutanamido)-3-methoxy-5-methylheptanoyl)pyrrolidin-2-yl)-3-methoxy-2-methylpropanamido)-3-phenylpropanoate” has a step yield (late stage modification step) of 96% yield.

“(S)-methyl 2-((2R,3R)-3-((S)-1-((6S,9S,12S,13R)-12-((S)-sec-butyl)-6,9-diisopropyl-13-methoxy-2,2,5,11-tetramethyl-4,7,10-trioxo-3-oxa-5,8,11-triazapentadecan-15-oyl)pyrrolidin-2-yl)-3-methoxy-2-methylpropanamido)-3-phenylpropanoate” showed a step yield (coupling step) of 39% yield.
